{
  "source": "PubChem BioAssay AID540276",
  "about": "(National Center for Advancing Translational Sciences (NCATS), 2011)",
  "note": "About 5,400 (1.8%) of roughly 300,000 compounds were called active. The inconclusive results got no clear call from the source; some entries with a clear call stand among them for comparison. The call rests on the fitted dose curve; tested in HEK293 cells. Where the call is inconclusive, the potency comes from a doubtful curve fit. Potency means the concentration at half of the fitted maximal effect.",
  "data": [
    {"assay": "qHTS for inhibitors of binding or entry into cells for Marburg Virus", "settings": "Marburg virus pseudotyped entry inhibition, cell reporter; series mostly up to 37.8 µM", "values": [
      {"smiles": "COc1cc(NC(=O)Cn2nc(C(F)(F)F)c(Br)c2C)cc([N+](=O)[O-])c1", "Potency": "inconclusive: 2 µM [activator, single point]"},
      {"smiles": "CCOC(=O)C1CCCN(C(=O)CSCc2ccccc2)C1", "note": "(stereo not drawn)", "Potency": "inactive"},
      {"smiles": "COc1ccc(Br)cc1CN(C)CC(=O)Nc1cc(Cl)cc(Cl)c1", "Potency": "inconclusive: 35.5 µM [inhibitor, single point]"},
      {"smiles": "Cc1ncsc1C(=O)Nc1nc2c(s1)CCCC2", "Potency": "inconclusive: 0.708 µM [activator, partial curve, poor fit]"},
      {"smiles": "CN(CC(=O)Nc1cccnc1)S(=O)(=O)c1ccc(Br)cc1", "Potency": "inconclusive: 4.47 µM [inhibitor, single point]"},
      {"smiles": "Cc1ccccc1NC(=S)NC(=O)c1cc(-c2ccccc2)nc2ccccc12", "Potency": "inconclusive: 12.6 µM [inhibitor, partial curve, poor fit]"},
      {"smiles": "O=C(N/N=C1\\C[C@@H](O)[C@@H](O)[C@@H]2[C@@H]3C(=O)N(C[C@@H]4CCCO4)C(=O)[C@@H]3CC[C@H]12)OCc1ccccc1", "Potency": "inconclusive: 2.66 µM [activator, partial curve, poor fit]"},
      {"smiles": "CCOc1ccc(NC(=O)c2cc(=O)c3cc(CC)ccc3o2)cc1", "Potency": "inconclusive: 6.31 µM [inhibitor, single point]"},
      {"smiles": "CCc1nc(N(CC)CC)c2oc3ccccc3c2n1", "Potency": "inactive"},
      {"smiles": "Cc1cccc(NC(=O)Cc2coc3ccc4ccccc4c23)n1", "Potency": "active: 6.51 µM"},
      {"smiles": "N#Cc1cc2c(nc1SCC(=O)Nc1ccc(F)c(Cl)c1)C1CCN2CC1", "Potency": "inconclusive: 3.55 µM [activator, single point]"},
      {"smiles": "CC(C)NC(=O)c1ccc(-c2ccc(Cl)c(C(F)(F)F)c2)o1", "Potency": "inactive"},
      {"smiles": "O=C(c1ccccc1)c1ccc(N2CCOCC2)c(NC(=O)c2ccco2)c1", "Potency": "inconclusive: 2.31 µM [inhibitor, full curve, poor fit]"},
      {"smiles": "COc1ccccc1NC(=S)NCCc1ccc(OC)c(OC)c1", "Potency": "inconclusive: 0.126 µM [activator, full curve, poor fit]"},
      {"smiles": "CC(C)Cn1c(=O)c(C(=O)N/N=C/c2cccc(F)c2)c(O)c2ccccc21", "Potency": "inconclusive: 35.5 µM [activator, partial curve, poor fit]"},
      {"smiles": "Cc1cnc(NC(=O)CSc2nnc(-c3ccccc3)o2)s1", "Potency": "inconclusive: 6.51 µM [activator, single point]"},
      {"smiles": "COC(=O)CC1c2cc(OC)c(OC)cc2CC(=O)c2cc(OC)c(OC)cc21", "note": "(stereo not drawn)", "Potency": "inconclusive: 1.12 µM [inhibitor, full curve]"},
      {"smiles": "N#Cc1ccccc1OCCN1C(=O)c2ccccc2C1=O", "Potency": "inconclusive: 35.5 µM [activator, partial curve, poor fit]"}
    ]}
  ]
}
